# Values from PubChem BioAssay AID743448 (Peter MacCallum Cancer Centre, 2014).
# Purpose: 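Third-round triage of 106 confirmed candidates in four colon lines under two drugs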 (follow-up of hits)
# System: four human colon cancer cell lines: HCT116-VR (vorinostat-resistant HCT116 derivative), SW480, SW620 and LIM1215
# Reagents: siRNA pool against human genes, 40 nM siRNA pool
# Time to read-out: drug added two days after transfection, read one day later
# Treatment: vorinostat 2.5 µM on one half of each plate, etoposide 5 µM on the other half
# Cell line and drug panel: LIM1215 cells with vorinostat
# Measured: 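Caspase luminescence and viability fluorescence, each expressed relative to mock transfection and also as robust z-scores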
# Scale: caspase ratio to mock: higher = more caspase activity than mock; viability ratio to mock: higher = more live cells than mock
# Active means: 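a row is a hit if caspase relative to mock is 1.6 or above or viability relative to mock is 0.75 or below; wells dying heavily without drug are not called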
# Meaning of the calls: active = caspase or viability hit in this panel; inactive = no change, or unhealthy well
# Shown is a random part of the 106 reagents, under one of the conditions tested. 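Calls are per line and drug panel including etoposide, not vorinostat-specific; gene picks needed hits in two or more extra lines with vorinostat versus etoposide.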 A number with no mark means an inactive call. Further read-outs or replicates are left out here.
gene,caspase ratio to mock,viability ratio to mock
EIF2B5,2.12 (active),0.8
LBHD1,1.62 (active),0.86
FLII,2.48 (active),1.34
C1orf210,1.92,0.78
NUP54,1.86 (active),1.01
NUP133,2.23 (active),0.96
DPPA5,1.54,0.87
CBX7,3.07 (active),0.95
MTF2,2.16 (active),0.93
PSMD4,2.91 (active),1.02
CCDC59,1.9 (active),0.77
PRRT3,2.17 (active),0.99
NFYA,1.66 (active),0.92
LCE2A,3.5 (active),1
POLR2I,0.92,1
NPEPPS,1.4 (active),0.55
POLR2G,3.08 (active),0.95
ANO9,1.74 (active),0.94
PUF60,3.22 (active),0.8
RERE,2.12 (active),1.15

2 entries from above, arranged by “caspase ratio to mock”, ascending.
gene,caspase ratio to mock,viability ratio to mock
DPPA5,1.54,0.87
CBX7,3.07 (active),0.95
